The values below come from US20050220906A1, “Pharmaceutical composition for treating rheumatism and the preparation thereof” (priority 2002, published 2005).

For the test, the system named is acetic acid-induced twisting reaction. In words: Acetic acid-induced twisting reaction. The class given is in vivo, Kuming mice. Conditions: 10 mg/kg.

The compound `CN1CC[C@]23c4c5ccc(O)c4O[C@H]2[C@@H](O)C=C[C@H]3[C@H]1C5.Cl` [morphine hydrochloride] registered a Latent time of 0.00 ± 0.00 min. For the same compound, the Twisting times (in 20 minutes) stood at 0.0 ± 0.0.
